# According to PubChem BioAssay AID330 (DTP/NCI, 2004):
# The list shows only some results of the screen, not a fair sample: it gathers tests that were run many times, whatever their T/C, doses with no T/C, and many T/C values between a quarter and a half above the control. Other doses and runs of a compound stand elsewhere. T/C is the treated group as % of the vehicle group. Some doses have a count of surviving animals in place of a T/C: the source files T/C as zero there, which appears to mark a toxic dose or a test without result, not a measured value. Some doses without a T/C left all or most animals alive at the check, yet need not have been tolerated: survival well below the control is almost never listed, so the zero probably covers shortened survival too. Counts of survivors are from the toxicity check (mostly the fifth day) where no day follows; animals may have died later. Schedule codes are those of the source, taken here to give the interval after Q, in days (D) or hours (H), and the number of doses after X. Some entries hold several experiments; the values are given in rising order. Marks such as (2×) say how often a value occurs here. For survival time, this PubChem deposit counts one and a half times the control or more as active, and values a quarter to a half above the control carry no call in these data; other NCI protocols may use other cut-offs. Some T/C values carry the count of animals alive at the toxicity check (mostly the fifth day); where none is given, no animal had died by that day.
# Test system: P388 leukemia ip, CD2F1 mice, survival T/C
# Assay: NCI In Vivo Anticancer Drug Screen. Data for tumor model P388 Leukemia (intraperitoneal) in CD2F1 (CDF1) mice
# Details: T/C endpoint: median survival time, higher T/C = longer survival
# [1] = dose: 200.0 micrograms/kg/injection, schedule: Q01DX009 (ip), vehicle: saline + alcohol
smiles,measurement,setting,value
Cc1c2oc3c(C)ccc(C(=O)N[C@@H]4C(=O)N[C@H](C(C)C)C(=O)N5CCC[C@H]5C(=O)N(C)CC(=O)N(C)[C@@H](C(C)C)C(=O)O[C@H]4C)c3nc-2c(C(=O)N[C@@H]2C(=O)N[C@H](C(C)C)C(=O)N3CCC[C@H]3C(=O)N(C)CC(=O)N(C)[C@@H](C(C)C)C(=O)O[C@H]2C)c(N)c1=O,T/C,"dose: 0.33 mg/kg/injection, schedule: Q01DX001 (ip), vehicle: saline, evaluated on day 30",172 % of control
same,T/C,"dose: 0.33 mg/kg/injection, schedule: Q01DX001 (ip), vehicle: saline, evaluated on day 45",150 and 166 % of control
same,T/C,"dose: 0.33 mg/kg/injection, schedule: Q01DX001 (ip), vehicle: saline, evaluated on day 60","141, 151, 152, 155 % of control"
same,T/C,"dose: 0.4 mg/kg/injection, schedule: Q01DX001 (ip), vehicle: water, evaluated on day 5","90, 161, 201 % of control"
same,T/C,"dose: 0.4 mg/kg/injection, schedule: Q01DX001 (ip), vehicle: water, evaluated on day 35",90 % of control [7 of 8 alive]
same,T/C,"dose: 0.4 mg/kg/injection, schedule: Q01DX001 (ip), vehicle: water, evaluated on day 45",201 % of control [7 of 8 alive]
same,T/C,"dose: 0.5 mg/kg/injection, schedule: Q01DX001 (ip), vehicle: saline, evaluated on day 30",181 % of control [9 of 10 alive]
same,T/C,"dose: 0.5 mg/kg/injection, schedule: Q01DX001 (ip), vehicle: saline, evaluated on day 45",156 and 160 % of control
same,T/C,"dose: 0.5 mg/kg/injection, schedule: Q01DX001 (ip), vehicle: saline, evaluated on day 60","143 [9 of 10 alive], 154, 157, 161, 163, 169 % of control"
same,T/C,"dose: 0.5 mg/kg/injection, schedule: Q01DX001 (ip), vehicle: water, evaluated on day 5",72 and 203 % of control
same,T/C,"dose: 0.5 mg/kg/injection, schedule: Q01DX001 (ip), vehicle: water, evaluated on day 45",203 % of control
same,survivor count,"dose: 0.5 mg/kg/injection, schedule: Q01DX001 (ip), vehicle: water",8 of 8
same,survivor count,"dose: 0.5 mg/kg/injection, schedule: Q01DX009 (ip), vehicle: water",0 of 3
same,survivor count,"dose: 0.6 mg/kg/injection, schedule: Q04DX003 (ip), vehicle: saline + alcohol",2 of 8
same,T/C,"dose: 0.75 mg/kg/injection, schedule: Q01DX001 (ip), vehicle: saline, evaluated on day 5",182 % of control
same,T/C,"dose: 0.75 mg/kg/injection, schedule: Q01DX001 (ip), vehicle: saline, evaluated on day 30",186 % of control [8 of 10 alive]
same,T/C,"dose: 0.75 mg/kg/injection, schedule: Q01DX001 (ip), vehicle: saline, evaluated on day 45",185 and 192 % of control
same,T/C,"dose: 0.75 mg/kg/injection, schedule: Q01DX001 (ip), vehicle: saline, evaluated on day 60","169, 171 [9 of 10 alive], 172, 175, 176, 182 % of control"
same,survivor count,"dose: 1.0 mg/kg/injection, schedule: Q01DX009 (ip), vehicle: water",0 of 3
same,survivor count,"dose: 1.0 mg/kg/injection, schedule: Q04DX002 (ip), vehicle: saline + alcohol",8 of 8
same,T/C,"dose: 6.25 micrograms/kg/injection, schedule: Q01DX009 (ip), vehicle: saline + alcohol","120, 134, 144, 154 % of control"
same,T/C,"dose: 6.25 micrograms/kg/injection, schedule: Q01DX009 (ip), vehicle: saline",147 % of control
same,T/C,"dose: 6.3 micrograms/kg/injection, schedule: Q01DX005 (ip), vehicle: saline + alcohol",133 % of control
same,T/C,"dose: 6.3 micrograms/kg/injection, schedule: Q01DX009 (ip), vehicle: saline, evaluated on day 30","124, 140, 148, 156 % of control"
same,T/C,"dose: 6.3 micrograms/kg/injection, schedule: Q01DX009 (ip), vehicle: saline, evaluated on day 35",141 % of control
same,T/C,"dose: 6.3 micrograms/kg/injection, schedule: Q01DX009 (ip), vehicle: water, evaluated on day 30","97, 129, 135 [5 of 6 alive], 136, 137, 148, 152 (2×), 161, 189 % of control"
same,T/C,"dose: 6.3 micrograms/kg/injection, schedule: Q01DX009 (ip), vehicle: water, evaluated on day 35",134 and 160 % of control
same,T/C,"dose: 12.5 micrograms/kg/injection, schedule: Q01DX005 (ip), vehicle: saline + alcohol",134 % of control
same,T/C,"dose: 12.5 micrograms/kg/injection, schedule: Q01DX009 (ip), vehicle: saline + alcohol","143, 145, 152, 153, 174 % of control"
same,T/C,"dose: 12.5 micrograms/kg/injection, schedule: Q01DX009 (ip), vehicle: saline, evaluated on day 30","137, 144, 157, 163, 166 % of control (2×)"
same,T/C,"dose: 12.5 micrograms/kg/injection, schedule: Q01DX009 (ip), vehicle: saline, evaluated on day 35",146 % of control
same,T/C,"dose: 12.5 micrograms/kg/injection, schedule: Q01DX009 (ip), vehicle: water, evaluated on day 30","106, 134, 136, 147, 151, 155, 157, 158, 163 (2×), 168, 175, 181 (2×), 189, 203, 218 % of control"
same,T/C,"dose: 12.5 micrograms/kg/injection, schedule: Q01DX009 (ip), vehicle: water, evaluated on day 35",148 and 154 % of control
same,T/C,"dose: 12.5 micrograms/kg/injection, schedule: Q01DX009 (ip), vehicle: water, evaluated on day 45",167 % of control
same,T/C,"dose: 13.0 micrograms/kg/injection, schedule: Q01DX009 (ip), vehicle: water","166, 188, 189, 237 % of control"
same,T/C,"dose: 25.0 micrograms/kg/injection, schedule: Q01DX005 (ip), vehicle: saline + alcohol",140 % of control
same,T/C,"dose: 25.0 micrograms/kg/injection, schedule: Q01DX009 (ip), vehicle: saline + alcohol","153, 156, 162 (2×), 186 % of control"
same,T/C,"dose: 25.0 micrograms/kg/injection, schedule: Q01DX009 (ip), vehicle: saline, evaluated on day 30","150, 155, 166, 168, 208, 246 % of control"
same,T/C,"dose: 25.0 micrograms/kg/injection, schedule: Q01DX009 (ip), vehicle: saline, evaluated on day 35",151 % of control
same,T/C,"dose: 25.0 micrograms/kg/injection, schedule: Q01DX009 (ip), vehicle: water, evaluated on day 30","108, 114, 141, 152 (2×), 161, 168, 170, 173, 181, 186 [5 of 6 alive], 187, 194, 200, 206, 215, 245 (2×), 263 % of control"
same,T/C,"dose: 25.0 micrograms/kg/injection, schedule: Q01DX009 (ip), vehicle: water, evaluated on day 35",150 and 196 % of control
same,T/C,"dose: 25.0 micrograms/kg/injection, schedule: Q01DX009 (ip), vehicle: water, evaluated on day 45",183 % of control
same,survivor count,"dose: 25.0 micrograms/kg/injection, schedule: Q01DX009 (ip), vehicle: water",6 of 6
same,T/C,"dose: 50.0 micrograms/kg/injection, schedule: Q01DX009 (ip), vehicle: saline + alcohol, evaluated on day 30","155, 171, 185, 196, 232 % of control"
same,T/C,"dose: 50.0 micrograms/kg/injection, schedule: Q01DX009 (ip), vehicle: saline + alcohol, evaluated on day 35",179 % of control
same,T/C,"dose: 50.0 micrograms/kg/injection, schedule: Q01DX009 (ip), vehicle: saline, evaluated on day 30","153, 172, 194 [5 of 6 alive], 205, 206, 225 % of control"
same,T/C,"dose: 50.0 micrograms/kg/injection, schedule: Q01DX009 (ip), vehicle: saline, evaluated on day 35",164 % of control
same,T/C,"dose: 50.0 micrograms/kg/injection, schedule: Q01DX009 (ip), vehicle: water, evaluated on day 30","100, 107, 124, 136, 159 [5 of 6 alive], 178, 180, 218, 222, 225, 227, 235, 250, 252, 267 % of control"
same,T/C,"dose: 50.0 micrograms/kg/injection, schedule: Q01DX009 (ip), vehicle: water, evaluated on day 35",179 and 285 % of control
same,T/C,"dose: 50.0 micrograms/kg/injection, schedule: Q01DX009 (ip), vehicle: water, evaluated on day 45",293 % of control
same,survivor count,"dose: 50.0 micrograms/kg/injection, schedule: Q01DX009 (ip), vehicle: water",5 of 6 and 6 of 6
same,T/C,"dose: 64.8 micrograms/kg/injection, schedule: Q04DX003 (ip), vehicle: saline + alcohol",130 % of control
same,survivor count,"dose: 100.0 micrograms/kg/injection, schedule: Q01DX005 (ip), vehicle: saline + alcohol",6 of 6
same,T/C,"dose: 100.0 micrograms/kg/injection, schedule: Q01DX009 (ip), vehicle: saline + alcohol","94, 119, 166, 180, 198 % of control"
same,T/C,"dose: 100.0 micrograms/kg/injection, schedule: Q01DX009 (ip), vehicle: saline, evaluated on day 30","91, 185, 188, 200, 224 % of control"
same,T/C,"dose: 100.0 micrograms/kg/injection, schedule: Q01DX009 (ip), vehicle: saline, evaluated on day 35",241 % of control
same,T/C,"dose: 100.0 micrograms/kg/injection, schedule: Q01DX009 (ip), vehicle: water, evaluated on day 30","101, 131, 133, 150, 176, 243, 247 [2 of 3 alive], 272, 279 % of control"
same,T/C,"dose: 100.0 micrograms/kg/injection, schedule: Q01DX009 (ip), vehicle: water, evaluated on day 35",196 % of control
same,T/C,"dose: 100.0 micrograms/kg/injection, schedule: Q01DX009 (ip), vehicle: water, evaluated on day 45",88 % of control
same,survivor count,"dose: 100.0 micrograms/kg/injection, schedule: Q01DX009 (ip), vehicle: water","0 of 6, 4 of 6, 5 of 6, 6 of 6 (2×)"
same,T/C,"dose: 108.0 micrograms/kg/injection, schedule: Q04DX003 (ip), vehicle: saline + alcohol",135 and 142 % of control
same,T/C,"dose: 180.0 micrograms/kg/injection, schedule: Q04DX003 (ip), vehicle: saline + alcohol",148 % of control
same,T/C,[1],243 and 254 % of control
same,survivor count,[1],5 of 6 and 6 of 6
same,T/C,"dose: 200.0 micrograms/kg/injection, schedule: Q01DX009 (ip), vehicle: saline, evaluated on day 30",94 % of control
same,T/C,"dose: 200.0 micrograms/kg/injection, schedule: Q01DX009 (ip), vehicle: saline, evaluated on day 35",315 % of control
same,survivor count,"dose: 200.0 micrograms/kg/injection, schedule: Q01DX009 (ip), vehicle: saline",5 of 6 and 6 of 6 (2×)
same,T/C,"dose: 200.0 micrograms/kg/injection, schedule: Q01DX009 (ip), vehicle: water, evaluated on day 30",100 and 143 % of control
same,T/C,"dose: 200.0 micrograms/kg/injection, schedule: Q01DX009 (ip), vehicle: water, evaluated on day 35",273 % of control
same,survivor count,"dose: 200.0 micrograms/kg/injection, schedule: Q01DX009 (ip), vehicle: water","0 of 6, 3 of 6, 3 of 3, 6 of 6 (2×)"
same,survivor count,"dose: 400.0 micrograms/kg/injection, schedule: Q01DX009 (ip), vehicle: saline + alcohol","4 of 6, 5 of 6, 6 of 6"
same,survivor count,"dose: 400.0 micrograms/kg/injection, schedule: Q01DX009 (ip), vehicle: saline","3 of 6, 4 of 6, 5 of 6, 6 of 6"
same,survivor count,"dose: 400.0 micrograms/kg/injection, schedule: Q01DX009 (ip), vehicle: water","0 of 6 (2×), 1 of 6, 2 of 6, 2 of 3, 5 of 6"
